These are yes or no findings as the source states them, for the method shown. Binding seen in cells or lysates may run through a third protein. Here binding means that the protein was enriched with, or labelled near, the bait; the list need not be complete.
B1: S100a9 (protein, UniProt P06702 1-114)
chain: MTCKMSQLERNIETIINTFHQYSVKLGHPDTLNQGEFKELVRKDLQNFLKKENKNEKVIEHIMEDLDTNADKQLSFEEFIMLMARLTWASHEKMHEGDEGPGHHHKPGLGEGTP
B2: Wdhd1 (protein, UniProt O75717 1-1129)
chain: MPATRKPMRYGHTEGHTEVCFDDSGSFIVTCGSDGDVRIWEDLDDDDPKFINVGEKAYSCALKSGKLVTAVSNNTIQVHTFPEGVPDGILTRFTTNANHVVFNGDGTKIAAGSSDFLVKIVDVMDSSQQKTFRGHDAPVLSLSFDPKDIFLASASCDGSVRVWQISDQTCAISWPLLQKCNDVINAKSICRLAWQPKSGKLLAIPVEKSVKLYRRESWSHQFDLSDNFISQTLNIVTWSPCGQYLAAGSINGLIIVWNVETKDCMERVKHEKGYAICGLAWHPTCGRISYTDAEGNLGLLENVCDPSGKTSSSKVSSRVEKDYNDLFDGDDMSNAGDFLNDNAVEIPSFSKGIINDDEDDEDLMMASGRPRQRSHILEDDENSVDISMLKTGSSLLKEEEEDGQEGSIHNLPLVTSQRPFYDGPMPTPRQKPFQSGSTPLHLTHRFMVWNSIGIIRCYNDEQDNAIDVEFHDTSIHHATHLSNTLNYTIADLSHEAILLACESTDELASKLHCLHFSSWDSSKEWIIDLPQNEDIEAICLGQGWAAAATSALLLRLFTIGGVQKEVFSLAGPVVSMAGHGEQLFIVYHRGTGFDGDQCLGVQLLELGKKKKQILHGDPLPLTRKSYLAWIGFSAEGTPCYVDSEGIVRMLNRGLGNTWTPICNTREHCKGKSDHYWVVGIHENPQQLRCIPCKGSRFPPTLPRPAVAILSFKLPYCQIATEKGQMEEQFWRSVIFHNHLDYLAKNGYEYEESTKNQATKEQQELLMKMLALSCKLEREFRCVELADLMTQNAVNLAIKYASRSRKLILAQKLSELAVEKAAELTATQVEEEEEEEDFRKKLNAGYSNTATEWSQPRFRNQVEEDAEDSGEADDEEKPEIHKPGQNSFSKSTNSSDVSAKSGAVTFSSQGRVNPFKVSASSKEPAMSMNSARSTNILDNMGKSSKKSTALSRTTNNEKSPIIKPLIPKPKPKQASAASYFQKRNSQTNKTEEVKEENLKNVLSETPAICPPQNTENQRPKTGFQMWLEENRSNILSDNPDFSDEADIIKEGMIRFRVLSTEERKVWANKAKGETASEGTEAKKRKRVVDESDETENQEEKAKENLNLSKKQKPLDFSTNQKLSAFAFKQE
B3: Ppip5k2 (protein, UniProt O43314 1-1243)
chain: MSEAPRFFVGPEDTEINPGNYRHFFHHADEDDEEEDDSPPERQIVVGICSMAKKSKSKPMKEILERISLFKYITVVVFEEEVILNEPVENWPLCDCLISFHSKGFPLDKAVAYAKLRNPFVINDLNMQYLIQDRREVYSILQAEGILLPRYAILNRDPNNPKECNLIEGEDHVEVNGEVFQKPFVEKPVSAEDHNVYIYYPTSAGGGSQRLFRKIGSRSSVYSPESNVRKTGSYIYEEFMPTDGTDVKVYTVGPDYAHAEARKSPALDGKVERDSEGKEVRYPVILNAREKLIAWKVCLAFKQTVCGFDLLRANGQSYVCDVNGFSFVKNSMKYYDDCAKILGNIVMRELAPQFHIPWSIPLEAEDIPIVPTTSGTMMELRCVIAVIRHGDRTPKQKMKMEVRHQKFFDLFEKCDGYKSGKLKLKKPKQLQEVLDIARQLLMELGQNNDSEIEENKPKLEQLKTVLEMYGHFSGINRKVQLTYLPHGCPKTSSEEEDSRREEPSLLLVLKWGGELTPAGRVQAEELGRAFRCMYPGGQGDYAGFPGCGLLRLHSTYRHDLKIYASDEGRVQMTAAAFAKGLLALEGELTPILVQMVKSANMNGLLDSDSDSLSSCQQRVKARLHEILQKDRDFTAEDYEKLTPSGSISLIKSMHLIKNPVKTCDKVYSLIQSLTSQIRHRMEDPKSSDIQLYHSETLELMLRRWSKLEKDFKTKNGRYDISKIPDIYDCIKYDVQHNGSLKLENTMELYRLSKALADIVIPQEYGITKAEKLEIAKGYCTPLVRKIRSDLQRTQDDDTVNKLHPVYSRGVLSPERHVRTRLYFTSESHVHSLLSILRYGALCNESKDEQWKRAMDYLNVVNELNYMTQIVIMLYEDPNKDLSSEERFHVELHFSPGAKGCEEDKNLPSGYGYRPASRENEGRRPFKIDNDDEPHTSKRDEVDRAVILFKPMVSEPIHIHRKSPLPRSRKTATNDEESPLSVSSPEGTGTWLHYTSGVGTGRRRRRSGEQITSSPVSPKSLAFTSSIFGSWQQVVSENANYLRTPRTLVEQKQNPTVGSHCAGLFSTSVLGGSSSAPNLQDYARTHRKKLTSSGCIDDATRGSAVKRFSISFARHPTNGFELYSMVPSICPLETLHNALSLKQVDEFLASIASPSSDVPRKTAEISSTALRSSPIMRKKVSLNTYTPAKILPTPPATLKSTKASSKPATSGPSSAVVPNTSSRKKNITSKTETHEHKKNTGKKK
B4: Fip1l1 (protein, UniProt Q6UN15 1-594)
chain: MSAGEVERLVSELSGGTGGDEEEEWLYGGPWDVHVHSDLAKDLDENEVERPEEENASANPPSGIEDETAENGVPKPKVTETEDDSDSDSDDDEDDVHVTIGDIKTGAPQYGSYGTAPVNLNIKTGGRVYGTTGTKVKGVDLDAPGSINGVPLLEVDLDSFEDKPWRKPGADLSDYFNYGFNEDTWKAYCEKQKRIRMGLEVIPVTSTTNKITAEDCTMEVTPGAEIQDGRFNLFKVQQGRTGNSEKETALPSTKAEFTSPPSLFKTGLPPSRNSTSSQSQTSTASRKANSSVGKWQDRYGRAESPDLRRLPGAIDVIGQTITISRVEGRRRANENSNIQVLSERSATEVDNNFSKPPPFFPPGAPPTHLPPPPFLPPPPTVSTAPPLIPPPGFPPPPGAPPPSLIPTIESGHSSGYDSRSARAFPYGNVAFPHLPGSAPSWPSLVDTSKQWDYYARREKDRDRERDRDRERDRDRDRERERTRERERERDHSPTPSVFNSDEERYRYREYAERGYERHRASREKEERHRERRHREKEETRHKSSRSNSRRRHESEEGDSHRRHKHKKSKRSKEGKEAGSEPAPEQESTEATPAE
B5: Srsf3 (protein, UniProt P84103 1-164)
chain: MHRDSCPLDCKVYVGNLGNNGNKTELERAFGYYGPLRSVWVARNPPGFAFVEFEDPRDAADAVRELDGRTLCGCRVRVELSNGEKRSRNRGPPPSWGRRPRDDYRRRSPPPRRRSPRRRSFSRSRSRSLSRDRRRERSLSRERNHKPSRSFSRSRSRSRSNERK
B6: Stt3a (protein, UniProt P46977 1-705)
chain: MTKFGFLRLSYEKQDTLLKLLILSMAAVLSFSTRLFAVLRFESVIHEFDPYFNYRTTRFLAEEGFYKFHNWFDDRAWYPLGRIIGGTIYPGLMITSAAIYHVLHFFHITIDIRNVCVFLAPLFSSFTTIVTYHLTKELKDAGAGLLAAAMIAVVPGYISRSVAGSYDNEGIAIFCMLLTYYMWIKAVKTGSICWAAKCALAYFYMVSSWGGYVFLINLIPLHVLVLMLTGRFSHRIYVAYCTVYCLGTILSMQISFVGFQPVLSSEHMAAFGVFGLCQIHAFVDYLRSKLNPQQFEVLFRSVISLVGFVLLTVGALLMLTGKISPWTGRFYSLLDPSYAKNNIPIIASVSEHQPTTWSSYYFDLQLLVFMFPVGLYYCFSNLSDARIFIIMYGVTSMYFSAVMVRLMLVLAPVMCILSGIGVSQVLSTYMKNLDISRPDKKSKKQQDSTYPIKNEVASGMILVMAFFLITYTFHSTWVTSEAYSSPSIVLSARGGDGSRIIFDDFREAYYWLRHNTPEDAKVMSWWDYGYQITAMANRTILVDNNTWNNTHISRVGQAMASTEEKAYEIMRELDVSYVLVIFGGLTGYSSDDINKFLWMVRIGGSTDTGKHIKENDYYTPTGEFRVDREGSPVLLNCLMYKMCYYRFGQVYTEAKRPPGFDRVRNAEIGNKDFELDVLEEAYTTEHWLVRIYKVKDLDNRGLSRT
B7: Nrf1 (protein, UniProt Q16656 1-503)
chain: MEEHGVTQTEHMATIEAHAVAQQVQQVHVATYTEHSMLSADEDSPSSPEDTSYDDSDILNSTAADEVTAHLAAAGPVGMAAAAAVATGKKRKRPHVFESNPSIRKRQQTRLLRKLRATLDEYTTRVGQQAIVLCISPSKPNPVFKVFGAAPLENVVRKYKSMILEDLESALAEHAPAPQEVNSELPPLTIDGIPVSVDKMTQAQLRAFIPEMLKYSTGRGKPGWGKESCKPIWWPEDIPWANVRSDVRTEEQKQRVSWTQALRTIVKNCYKQHGREDLLYAFEDQQTQTQATATHSIAHLVPSQTVVQTFSNPDGTVSLIQVGTGATVATLADASELPTTVTVAQVNYSAVADGEVEQNWATLQGGEMTIQTTQASEATQAVASLAEAAVAASQEMQQGATVTMALNSEAAAHAVATLAEATLQGGGQIVLSGETAAAVGALTGVQDANGLVQIPVSMYQTVVTSLAQGNGPVQVAMAPVTTRISDSAVTMDGQAVEVVTLEQ
B8: Gnl3l (protein, UniProt Q9NVN8 1-582)
chain: MMKLRHKNKKPGEGSKGHKKISWPYPQPAKQNGKKATSKVPSAPHFVHPNDHANREAELKKKWVEEMREKQQAAREQERQKRRTIESYCQDVLRRQEEFEHKEEVLQELNMFPQLDDEATRKAYYKEFRKVVEYSDVILEVLDARDPLGCRCFQMEEAVLRAQGNKKLVLVLNKIDLVPKEVVEKWLDYLRNELPTVAFKASTQHQVKNLNRCSVPVDQASESLLKSKACFGAENLMRVLGNYCRLGEVRTHIRVGVVGLPNVGKSSLINSLKRSRACSVGAVPGITKFMQEVYLDKFIRLLDAPGIVPGPNSEVGTILRNCVHVQKLADPVTPVETILQRCNLEEISNYYGVSGFQTTEHFLTAVAHRLGKKKKGGLYSQEQAAKAVLADWVSGKISFYIPPPATHTLPTHLSAEIVKEMTEVFDIEDTEQANEDTMECLATGESDELLGDTDPLEMEIKLLHSPMTKIADAIENKTTVYKIGDLTGYCTNPNRHQMGWAKRNVDHRPKSNSMVDVCSVDRRSVLQRIMETDPLQQGQALASALKNKKKMQKRADKIASKLSDSMMSALDLSGNADDGVGD
B9: Lcp1 (protein, UniProt P13796 1-627)
chain: MARGSVSDEEMMELREAFAKVDTDGNGYISFNELNDLFKAACLPLPGYRVREITENLMATGDLDQDGRISFDEFIKIFHGLKSTDVAKTFRKAINKKEGICAIGGTSEQSSVGTQHSYSEEEKYAFVNWINKALENDPDCRHVIPMNPNTNDLFNAVGDGIVLCKMINLSVPDTIDERTINKKKLTPFTIQENLNLALNSASAIGCHVVNIGAEDLKEGKPYLVLGLLWQVIKIGLFADIELSRNEALIALLREGESLEDLMKLSPEELLLRWANYHLENAGCNKIGNFSTDIKDSKAYYHLLEQVAPKGDEEGVPAVVIDMSGLREKDDIQRAECMLQQAERLGCRQFVTATDVVRGNPKLNLAFIANLFNRYPALHKPENQDIDWGALEGETREERTFRNWMNSLGVNPRVNHLYSDLSDALVIFQLYEKIKVPVDWNRVNKPPYPKLGGNMKKLENCNYAVELGKNQAKFSLVGIGGQDLNEGNRTLTLALIWQLMRRYTLNILEEIGGGQKVNDDIIVNWVNETLREAKKSSSISSFKDPKISTSLPVLDLIDAIQPGSINYDLLKTENLNDDEKLNNAKYAISMARKIGARVYALPEDLVEVNPKMVMTVFACLMGKGMKRV

Each binder was assayed against Biotin-FOXC1 (mouse) (UniProt Q61572) (assay: affinity purification with mass spectrometry; streptavidin-agarose precipitation of biotinylated FOXC1 from nuclear extract of stable HEK293T cells (293T-Biotin-FOXC1); IP350 buffer (350 mM NaCl, 20 mM Tris-HCl pH 7.5, 0.5% NP40, 1 mM EDTA, 10% glycerin); SDS-PAGE, LC-ESI-MS/MS; proteins of the 293T-Biotin control deducted).

binding, binds:
B1
B2
B3
B4
B5
B6
B7
B8
B9

From article PMC7956269
